{"source": "patent US20120122716A1", "about": "“CELL LINE DERIVED FROM THE EPITHELIAL LINING OF THE HUMAN ENDOLYMPHATIC SAC IN THE INNER EAR” (priority 2010, published 2012)", "key": {"AQP3": {"system": "AQP3", "assay": "Luciferase assay of AQP3 regulation in ES cells", "assay_type": "cell-based", "details": "immortalized human ES epithelial cells"}, "ES cells": {"system": "ES cells", "assay": "Water permeability of ES cells (fluorescence-quenching assay)", "assay_type": "cell-based", "details": "immortalized human ES epithelial cells", "protocol": "For water permeability measurement, an ES cell line is plated in 96-well clear bottom of black-walled microplates (Costar) at a density of 20000 cells per well in F-12 Ham's medium supplemented with 10% FBS and 0.5 mg/mL G418. After incubation at 37° C. in an atmosphere containing 5% CO2 with 90% humidity for 18 h, the cells in 96-well plates are washed twice in PBS buffer (200 μL/wash), leaving 100 μL PBS after the last wash. Measurement is performed on a FLUOstar Optima plate reader (BMG Technology) equipped with syringe pumps and excitation and emission filters. Cells in each well of the plate are assayed individually for osmotically driven (e.g., aquaporin-mediated), water influx across the plasma membrane that dilutes the cytoplasmic Cl^− by recording fluorescence increase continuously (0.2 s per point) for 2 s (baseline) and then for 21 s (water transport into the cells) after rapid injection (<1 s) of 100 μL distilled water. Water permeability is expressed as half time (t1/2) from water injection to the point when the cytoplasmic fluorescence reaches the maximum. A smaller t1/2 represents a higher water permeability.\nThe inner ear can function properly only if the chemical equilibrium and volume of inner ear fluids are maintained. The disruption of inner ear homeostasis results in many inner ear disorders such as Meniere's disease. […]"}}, "note": "For at least one compound, name, drawing or mass did not settle the structure.", "data": [{"smiles": "C[C@@H]1C[C@H]2[C@@H]3CCC4=CC(=O)C=C[C@]4(C)[C@@]3(F)[C@@H](O)C[C@]2(C)[C@@]1(O)C(=O)CO", "note": "[dexamethasone]", "values": [{"measurement": "AQP3 regulation (luciferase assay)", "setting": "AQP3", "result": "up-regulation"}, {"measurement": "water permeability of ES cells upon exposure", "setting": "ES cells", "result": "affected"}]}]}
